# Assay results as given in the supplement of paper PMC7666118.
# Sequences of proteins named here, by UniProt entry; tags and fusion partners are left off. A change or cut given only in a name is not applied to a line headed by its entry.
# UniProt P32929, whole entry: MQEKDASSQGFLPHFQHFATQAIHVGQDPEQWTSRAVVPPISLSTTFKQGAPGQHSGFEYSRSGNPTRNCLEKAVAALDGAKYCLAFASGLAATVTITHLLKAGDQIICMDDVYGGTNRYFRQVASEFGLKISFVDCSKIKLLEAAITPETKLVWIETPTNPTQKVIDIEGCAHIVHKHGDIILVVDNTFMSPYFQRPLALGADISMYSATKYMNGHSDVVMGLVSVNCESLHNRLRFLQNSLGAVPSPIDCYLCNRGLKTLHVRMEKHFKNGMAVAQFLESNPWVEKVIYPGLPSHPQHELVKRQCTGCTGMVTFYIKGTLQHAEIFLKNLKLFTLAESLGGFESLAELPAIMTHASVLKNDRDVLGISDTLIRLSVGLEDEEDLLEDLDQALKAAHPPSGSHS
# UniProt P26196: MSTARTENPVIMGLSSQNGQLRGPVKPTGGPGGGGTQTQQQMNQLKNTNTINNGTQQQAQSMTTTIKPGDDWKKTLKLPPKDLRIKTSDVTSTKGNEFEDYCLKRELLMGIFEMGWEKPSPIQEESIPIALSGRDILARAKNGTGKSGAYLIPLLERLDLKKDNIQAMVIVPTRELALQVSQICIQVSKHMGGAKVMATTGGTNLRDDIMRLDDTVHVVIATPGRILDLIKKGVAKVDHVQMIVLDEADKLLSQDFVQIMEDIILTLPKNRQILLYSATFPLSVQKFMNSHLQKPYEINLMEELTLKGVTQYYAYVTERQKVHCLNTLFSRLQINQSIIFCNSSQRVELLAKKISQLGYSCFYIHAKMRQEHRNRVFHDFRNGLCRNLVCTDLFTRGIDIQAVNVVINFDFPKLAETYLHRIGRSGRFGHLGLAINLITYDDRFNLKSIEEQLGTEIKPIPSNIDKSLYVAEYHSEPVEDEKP
# UniProt Q16254: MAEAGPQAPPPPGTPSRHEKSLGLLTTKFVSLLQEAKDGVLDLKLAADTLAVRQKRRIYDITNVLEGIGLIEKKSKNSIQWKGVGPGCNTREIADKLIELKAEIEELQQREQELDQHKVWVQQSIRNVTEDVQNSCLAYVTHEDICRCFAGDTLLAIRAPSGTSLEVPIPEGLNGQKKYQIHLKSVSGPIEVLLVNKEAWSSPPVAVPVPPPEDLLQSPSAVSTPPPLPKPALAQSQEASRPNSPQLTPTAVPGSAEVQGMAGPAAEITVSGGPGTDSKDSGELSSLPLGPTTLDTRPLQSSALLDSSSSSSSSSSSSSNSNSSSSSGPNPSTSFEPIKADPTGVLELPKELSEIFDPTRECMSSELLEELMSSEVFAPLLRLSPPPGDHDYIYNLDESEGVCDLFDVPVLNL
# UniProt P35222, whole entry: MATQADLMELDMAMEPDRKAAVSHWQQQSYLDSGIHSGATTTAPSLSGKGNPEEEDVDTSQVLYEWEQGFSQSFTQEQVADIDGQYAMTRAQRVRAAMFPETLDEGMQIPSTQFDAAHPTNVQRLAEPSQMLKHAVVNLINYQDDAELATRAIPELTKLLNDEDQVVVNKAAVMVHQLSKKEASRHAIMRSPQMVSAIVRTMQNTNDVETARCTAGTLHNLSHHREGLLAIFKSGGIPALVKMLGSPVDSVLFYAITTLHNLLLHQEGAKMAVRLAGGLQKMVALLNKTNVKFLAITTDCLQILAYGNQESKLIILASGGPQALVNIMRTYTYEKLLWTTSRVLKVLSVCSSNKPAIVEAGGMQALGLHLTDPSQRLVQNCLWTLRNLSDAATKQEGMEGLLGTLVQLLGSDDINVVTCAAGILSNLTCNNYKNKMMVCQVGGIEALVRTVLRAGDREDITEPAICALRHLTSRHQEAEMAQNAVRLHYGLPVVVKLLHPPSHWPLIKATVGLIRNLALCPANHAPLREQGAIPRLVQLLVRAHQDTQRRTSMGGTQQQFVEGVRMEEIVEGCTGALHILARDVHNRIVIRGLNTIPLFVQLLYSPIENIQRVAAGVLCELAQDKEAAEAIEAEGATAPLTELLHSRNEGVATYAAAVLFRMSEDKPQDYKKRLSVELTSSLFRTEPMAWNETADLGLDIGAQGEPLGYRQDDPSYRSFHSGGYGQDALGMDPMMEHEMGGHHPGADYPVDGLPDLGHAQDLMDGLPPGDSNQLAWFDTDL
# UniProt Q8IX18: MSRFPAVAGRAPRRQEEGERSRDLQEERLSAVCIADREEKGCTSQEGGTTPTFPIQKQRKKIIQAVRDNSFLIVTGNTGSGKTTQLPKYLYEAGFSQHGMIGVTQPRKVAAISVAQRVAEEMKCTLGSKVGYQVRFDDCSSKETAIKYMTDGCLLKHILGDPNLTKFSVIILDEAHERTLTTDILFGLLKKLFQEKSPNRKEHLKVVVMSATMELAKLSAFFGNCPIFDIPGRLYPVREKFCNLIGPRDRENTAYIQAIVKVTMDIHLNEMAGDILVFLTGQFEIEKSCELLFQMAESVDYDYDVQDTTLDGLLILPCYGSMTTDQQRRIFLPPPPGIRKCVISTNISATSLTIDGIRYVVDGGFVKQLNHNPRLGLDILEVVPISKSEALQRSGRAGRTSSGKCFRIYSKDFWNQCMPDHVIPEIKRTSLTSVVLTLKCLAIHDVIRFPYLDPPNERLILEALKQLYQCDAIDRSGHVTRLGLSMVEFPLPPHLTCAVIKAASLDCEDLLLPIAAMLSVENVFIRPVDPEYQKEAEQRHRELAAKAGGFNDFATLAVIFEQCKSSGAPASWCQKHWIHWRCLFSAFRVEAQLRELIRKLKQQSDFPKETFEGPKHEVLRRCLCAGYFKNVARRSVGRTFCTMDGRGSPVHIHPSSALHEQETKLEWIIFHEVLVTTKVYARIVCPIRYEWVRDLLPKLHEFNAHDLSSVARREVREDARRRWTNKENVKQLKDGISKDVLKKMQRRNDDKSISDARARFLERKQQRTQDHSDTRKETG
# UniProt O95865: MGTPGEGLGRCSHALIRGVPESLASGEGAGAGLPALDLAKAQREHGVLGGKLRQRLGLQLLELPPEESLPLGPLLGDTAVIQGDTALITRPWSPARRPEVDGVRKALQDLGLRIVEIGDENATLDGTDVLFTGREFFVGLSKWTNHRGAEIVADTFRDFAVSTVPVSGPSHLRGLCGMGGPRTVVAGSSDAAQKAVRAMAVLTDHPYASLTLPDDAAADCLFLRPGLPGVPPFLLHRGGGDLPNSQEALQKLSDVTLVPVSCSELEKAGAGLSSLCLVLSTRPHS
# UniProt Q9NTX5: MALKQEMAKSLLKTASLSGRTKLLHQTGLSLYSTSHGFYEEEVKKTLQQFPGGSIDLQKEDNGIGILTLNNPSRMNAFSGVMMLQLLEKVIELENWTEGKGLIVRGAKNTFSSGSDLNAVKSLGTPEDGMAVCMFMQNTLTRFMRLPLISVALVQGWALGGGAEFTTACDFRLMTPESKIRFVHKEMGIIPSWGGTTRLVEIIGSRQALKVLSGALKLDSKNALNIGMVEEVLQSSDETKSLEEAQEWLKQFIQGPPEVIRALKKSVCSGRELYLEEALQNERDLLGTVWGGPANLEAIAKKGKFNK
# UniProt Q16527: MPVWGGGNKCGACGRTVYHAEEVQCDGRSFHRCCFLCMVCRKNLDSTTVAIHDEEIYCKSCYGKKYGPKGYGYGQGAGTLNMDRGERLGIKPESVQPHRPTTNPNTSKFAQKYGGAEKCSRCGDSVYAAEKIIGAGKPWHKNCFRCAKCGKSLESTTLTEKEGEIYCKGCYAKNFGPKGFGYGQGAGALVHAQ
# UniProt Q05D32: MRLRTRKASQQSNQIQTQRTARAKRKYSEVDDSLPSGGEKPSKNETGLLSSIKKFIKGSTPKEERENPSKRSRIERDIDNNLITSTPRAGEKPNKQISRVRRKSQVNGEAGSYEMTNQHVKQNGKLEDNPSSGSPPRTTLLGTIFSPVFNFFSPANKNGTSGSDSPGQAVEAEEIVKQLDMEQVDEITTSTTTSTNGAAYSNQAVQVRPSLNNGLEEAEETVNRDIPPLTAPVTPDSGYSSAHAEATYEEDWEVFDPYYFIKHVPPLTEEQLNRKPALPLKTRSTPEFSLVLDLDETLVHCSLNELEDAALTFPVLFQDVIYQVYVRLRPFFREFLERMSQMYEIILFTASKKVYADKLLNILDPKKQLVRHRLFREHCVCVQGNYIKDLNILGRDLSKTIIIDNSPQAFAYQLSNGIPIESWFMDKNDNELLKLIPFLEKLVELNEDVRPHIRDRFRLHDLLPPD
# UniProt Q96SD1, whole entry: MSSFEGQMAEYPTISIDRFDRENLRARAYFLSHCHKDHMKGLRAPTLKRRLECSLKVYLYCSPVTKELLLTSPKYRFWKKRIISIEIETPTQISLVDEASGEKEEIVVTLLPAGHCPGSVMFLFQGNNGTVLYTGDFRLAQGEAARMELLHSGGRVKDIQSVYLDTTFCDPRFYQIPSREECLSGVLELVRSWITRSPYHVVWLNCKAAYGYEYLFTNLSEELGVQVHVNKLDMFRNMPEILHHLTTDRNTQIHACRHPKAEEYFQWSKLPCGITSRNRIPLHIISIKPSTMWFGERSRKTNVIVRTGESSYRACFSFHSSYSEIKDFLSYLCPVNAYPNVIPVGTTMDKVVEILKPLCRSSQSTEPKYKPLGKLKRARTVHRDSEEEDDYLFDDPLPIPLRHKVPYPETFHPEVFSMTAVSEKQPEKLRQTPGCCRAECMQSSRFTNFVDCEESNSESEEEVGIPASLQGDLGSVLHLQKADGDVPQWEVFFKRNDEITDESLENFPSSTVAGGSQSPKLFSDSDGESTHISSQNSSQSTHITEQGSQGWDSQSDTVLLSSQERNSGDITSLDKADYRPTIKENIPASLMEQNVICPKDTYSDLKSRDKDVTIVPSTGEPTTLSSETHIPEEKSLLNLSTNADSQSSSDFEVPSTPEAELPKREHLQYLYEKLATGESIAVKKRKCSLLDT
# UniProt Q66K89: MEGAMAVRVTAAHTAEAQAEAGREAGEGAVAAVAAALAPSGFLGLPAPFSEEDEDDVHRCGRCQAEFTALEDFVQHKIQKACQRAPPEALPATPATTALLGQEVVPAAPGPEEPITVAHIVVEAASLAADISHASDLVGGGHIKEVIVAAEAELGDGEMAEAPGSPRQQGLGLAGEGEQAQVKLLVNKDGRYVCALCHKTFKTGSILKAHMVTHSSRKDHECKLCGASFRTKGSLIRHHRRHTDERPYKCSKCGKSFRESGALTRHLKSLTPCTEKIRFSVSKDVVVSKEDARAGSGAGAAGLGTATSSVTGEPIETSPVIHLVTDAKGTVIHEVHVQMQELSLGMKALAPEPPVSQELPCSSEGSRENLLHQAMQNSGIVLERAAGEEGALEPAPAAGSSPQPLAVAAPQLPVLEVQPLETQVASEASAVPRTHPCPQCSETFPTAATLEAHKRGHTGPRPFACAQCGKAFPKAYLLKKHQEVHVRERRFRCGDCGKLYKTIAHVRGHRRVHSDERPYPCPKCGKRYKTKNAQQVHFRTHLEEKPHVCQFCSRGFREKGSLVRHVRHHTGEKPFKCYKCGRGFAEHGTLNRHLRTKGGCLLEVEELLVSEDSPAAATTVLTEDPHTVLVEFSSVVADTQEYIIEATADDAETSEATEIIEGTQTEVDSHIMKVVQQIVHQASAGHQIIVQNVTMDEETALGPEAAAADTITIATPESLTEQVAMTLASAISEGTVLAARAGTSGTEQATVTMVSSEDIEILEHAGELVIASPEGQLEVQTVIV
# UniProt Q8IZD4: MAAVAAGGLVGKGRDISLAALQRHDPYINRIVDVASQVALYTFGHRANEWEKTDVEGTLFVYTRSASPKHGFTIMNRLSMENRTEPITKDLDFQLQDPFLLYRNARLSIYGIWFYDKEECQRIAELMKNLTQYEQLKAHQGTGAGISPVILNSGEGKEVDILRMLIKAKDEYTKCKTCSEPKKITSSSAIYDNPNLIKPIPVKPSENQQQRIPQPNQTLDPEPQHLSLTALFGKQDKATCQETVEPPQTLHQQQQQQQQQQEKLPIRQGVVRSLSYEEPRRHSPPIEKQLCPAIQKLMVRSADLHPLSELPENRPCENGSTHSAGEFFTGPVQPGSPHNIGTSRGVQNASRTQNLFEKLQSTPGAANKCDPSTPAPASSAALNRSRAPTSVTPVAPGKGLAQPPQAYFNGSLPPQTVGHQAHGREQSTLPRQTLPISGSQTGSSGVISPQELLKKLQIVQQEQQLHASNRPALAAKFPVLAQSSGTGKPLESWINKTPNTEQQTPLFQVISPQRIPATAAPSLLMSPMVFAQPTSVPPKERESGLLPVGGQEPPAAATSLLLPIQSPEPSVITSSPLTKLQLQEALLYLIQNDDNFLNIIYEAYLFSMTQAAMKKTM
# Some of the results follow.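 Rule for the calls: active = dose-dependent thermal stabilisation significant by F-test of dose-response against flat model at 10% FDR; inactive = not significant.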
# Compound: Nc1nc2c(ncn2[C@@H]2O[C@H](COP(=O)(O)OP(=O)(O)OP(=O)(O)O)[C@@H](O)[C@H]2O)c(=O)[nH]1
# Assay: dose-dependent thermal stabilisation call (2D-TPP, DLPTP, 10% FDR) (binary (1 = stabilised)); higher = stabilised by the compound
# Conditions: system: Jurkat gel-filtered lysate; concentration range 1-500 µM
# Description: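 2D thermal proteome profiling in gel-filtered Jurkat E6.1 lysate (2 mg/ml) treated with NaGTP (0, 1, 10, 100, 500 uM) for 10 min at room temperature, then heated 3 min at one of 12 temperatures (42-63.9 C). Soluble protein was quantified by TMT10 MS. The value is the DLPTP call of the paper: dose-dependent thermal stabilisation over all temperatures at 10% FDR (F-test of a dose-response against a flat model); one experiment, one call per tested protein.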
row,Target,dose-dependent thermal stabilisation call
1,CTH (UniProt P32929),inactive: 0
2,EEF1A2 (UniProt Q05639),inactive: 0
3,DCAF8 (UniProt Q5TAQ9),inactive: 0
4,DRG1 (UniProt Q9Y295),active: 1
5,DDX6 (UniProt P26196),inactive: 0
6,E2F4 (UniProt Q16254),inactive: 0
7,DNAJC3 (UniProt Q13217),inactive: 0
8,DPP3 (UniProt Q9NY33),inactive: 0
9,CTPS1 (UniProt P17812),inactive: 0
10,DDX46 (UniProt Q7L014),inactive: 0
11,CTNNB1 (UniProt P35222),inactive: 0
12,DHX40 (UniProt Q8IX18),active: 1
13,CXorf56 (UniProt Q9H5V9),inactive: 0
14,EEF1G (UniProt P26641),inactive: 0
15,DAG1 (UniProt Q14118),inactive: 0
16,DDAH2 (UniProt O95865),inactive: 0
17,DCAF12 (UniProt Q5T6F0),inactive: 0
18,ECHDC1 (UniProt Q9NTX5),inactive: 0
19,DCTD (UniProt P32321),inactive: 0
20,DTYMK (UniProt P23919),active: 1

row,Target,dose-dependent thermal stabilisation call
1,CSRP2 (UniProt Q16527),inactive: 0
2,DDI2 (UniProt Q5TDH0),inactive: 0
3,CTDSPL2 (UniProt Q05D32),inactive: 0
4,DDRGK1 (UniProt Q96HY6),inactive: 0
5,DNM1L (UniProt O00429),active: 1
6,CUL5 (UniProt Q93034),inactive: 0
7,DENND4A (UniProt Q7Z401),inactive: 0
8,DCLRE1C (UniProt Q96SD1),inactive: 0
9,DOCK9 (UniProt Q9BZ29),inactive: 0
10,CTU2 (UniProt Q2VPK5),inactive: 0
11,E4F1 (UniProt Q66K89),active: 1
12,DPF3 (UniProt Q92784),inactive: 0
13,DNAAF5 (UniProt Q86Y56),inactive: 0
14,DCP1B (UniProt Q8IZD4),inactive: 0
15,CS (UniProt O75390),inactive: 0
16,CXXC1 (UniProt Q9P0U4),inactive: 0
17,DPH7 (UniProt Q9BTV6),inactive: 0
18,CRTC2 (UniProt Q53ET0),inactive: 0
19,CUL1 (UniProt Q13616),inactive: 0
20,DLGAP5 (UniProt Q15398),inactive: 0

# Retrieved one by one from above:
row,Target,dose-dependent thermal stabilisation call
1,CSRP2 (UniProt Q16527),inactive: 0
8,DCLRE1C (UniProt Q96SD1),inactive: 0
